Library screening results

By UniProt entry, the sequences of proteins in these tests, tags left out.
UniProt E9BF75, entry or part of it: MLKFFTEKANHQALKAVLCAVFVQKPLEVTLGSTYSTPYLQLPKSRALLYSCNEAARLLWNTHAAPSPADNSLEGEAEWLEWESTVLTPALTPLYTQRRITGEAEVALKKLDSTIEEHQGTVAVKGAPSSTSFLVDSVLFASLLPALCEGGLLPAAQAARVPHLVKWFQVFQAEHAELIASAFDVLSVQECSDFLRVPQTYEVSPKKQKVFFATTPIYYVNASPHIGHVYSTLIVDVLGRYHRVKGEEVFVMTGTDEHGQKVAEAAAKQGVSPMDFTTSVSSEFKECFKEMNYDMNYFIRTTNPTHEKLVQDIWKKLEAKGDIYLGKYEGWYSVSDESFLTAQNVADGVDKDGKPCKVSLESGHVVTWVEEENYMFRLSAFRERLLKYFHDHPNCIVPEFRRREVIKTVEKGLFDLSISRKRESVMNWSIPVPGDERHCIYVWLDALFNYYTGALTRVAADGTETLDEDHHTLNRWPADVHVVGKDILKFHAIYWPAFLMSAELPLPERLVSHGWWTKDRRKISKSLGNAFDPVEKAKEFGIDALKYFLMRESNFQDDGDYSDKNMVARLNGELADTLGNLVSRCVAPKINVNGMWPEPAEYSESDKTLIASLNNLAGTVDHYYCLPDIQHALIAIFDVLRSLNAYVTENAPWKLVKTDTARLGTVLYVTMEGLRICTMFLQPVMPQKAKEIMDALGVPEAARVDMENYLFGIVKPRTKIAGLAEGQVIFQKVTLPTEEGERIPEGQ

Results are percentages, as filed. The controls that fix the scale are not given in the record; negative values are as filed. This is an unselected part of the compounds tested. A dash means the value is not listed here; it may have been measured.

Mtb heat-shock: 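Assay on Mycobacterium tuberculosis, filed only as a heat shock assay from Cornell; the read-out is not stated. The concentration is filed as 10 mM, unlikely as a test dose, so the dose is not known. The record gives no direction; compounds that gave an IC50 in retests scored well above the rest, so higher reads as stronger inhibition. Size under these conditions: about 69,000 compounds, about 930 of them at 50% or above in at least one test.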
LdMetRS: 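Methionyl-tRNA synthetase (putative), Leishmania donovani (UniProt E9BF75). Primary screen of methionyl-tRNA synthetase; the read-out is not stated. The test concentration is not given. The values are filed as inhibition. Size under these conditions: about 68,000 compounds, about 24 of them at 50% or above in at least one test.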
Mtb growth Cornell: 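Whole-cell assay for inhibitors of Mycobacterium tuberculosis growth, labelled Cornell in the record; the read-out is not stated. The concentration is filed as 10 mM, unlikely as a test dose, so the dose is not known. Higher means stronger inhibition (inferred from two other growth screens of the library). Size under these conditions: about 53,000 compounds, about 900 of them at 50% or above in at least one test.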

| SMILES | Mtb heat-shock | LdMetRS | Mtb growth Cornell |
|---|---|---|---|
| `O=C(O)[C@@H]1CN(C(=O)CN2CCCCCC2)C[C@H]1c1ccccc1` | -3.133 | 26.25 | - |
| `CN(CCOCC1CC1)C(=O)Cn1cccc(C(F)(F)F)c1=O` | 1.369 | 8.014 | -10.9 |
| `Cn1[nH]c(C2CC2)c(-c2ccc3c(c2)OCO3)c1=N` | -19.25 | 11.39 | 17.45 |
| `CN(C)c1ccccc1CN1CCCCC1CNS(C)(=O)=O` (centres undefined) | -19.22 | 6.643 | 3.612 |
| `Cc1ccc(C(=O)NS(=O)(=O)Cc2ccccc2)cc1S(C)(=O)=O` | 0.4619 | 8.964 | 8.6 |
| `CN(C)C(=O)N1CCN(Cc2ccc3occc3c2)[C@H]2CS(=O)(=O)C[C@H]21` | - | 15.38 | - |
| `CSCCCN1C[C@H](NC(=O)c2ccc(CO)cc2)[C@@H](C2CC2)C1` | -5.597 | 12.93 | 26.9 |
| `COc1ccc(COCC(O)CSc2ccc(NC(C)=O)cc2)cc1` (centres undefined) | 15.9 | 5.93 | 16.94 |
| `CN(Cc1ccncc1)C1CC2(CCN(c3ncccn3)CC2)C1` | - | 18.25 | - |
| `CN1CCCCC(C2CCN(S(=O)(=O)c3cn(C)cn3)CC2)C1=O` (centres undefined) | -11.75 | 8.491 | 1.51 |
| `CCn1c(C2CCCN(Cc3cc(F)ccc3OC)C2)nn(C)c1=O` (centres undefined) | -10.39 | 6.406 | - |
| `OC1(c2cn(C3CCN(C4CCSC4)CC3)nn2)CCCC1` (centres undefined) | -20.52 | 0.9804 | -2.676 |
| `Cc1nn(CCCNC(=O)C2CCN(S(C)(=O)=O)CC2)cc1Cl` | -12.21 | 10.76 | 12.8 |
| `CC1=N[C@@]2(CC[C@@H]3CN(CC(C)C)C[C@@H]32)C(=O)N1CC(C)C` | - | 9.841 | - |
| `O=C(O)C(F)(F)F.O=C(O)C(F)(F)F.[H][C@@]12CN(Cc3nccs3)CCC[C@]1(C(=O)OCC)CN(CCOC)C2` | -3.367 | - | 14.82 |
| `O=C(CCN1CCc2ccccc21)N1C[C@@H](O)[C@H](N2CCOCC2)C1` | 1.207 | 16.13 | 4.211 |
| `CNC(=O)c1cnc(/C=C/c2cc(OC)cc(OC)c2)s1` | 7.464 | 2.857 | 20.15 |
| `O=C(O)C(F)(F)F.c1cnc(N2CCOCC3(C2)CN(c2nccs2)CCO3)nc1` (centres undefined) | 11.6 | - | -3.575 |
| `CN1CC(=O)N(c2cccc(F)c2)CC12CCN(Cc1nccs1)C2` (centres undefined) | - | 8.511 | - |
| `O=C(CS(=O)(=O)Cc1cc(Cl)c2c(c1)OCO2)N1CCCC1` | 6.065 | 9.777 | -11.65 |
| `[H][C@]12CC[C@]([H])(CN(C(=O)c3cnccn3)C1)N(S(=O)(=O)c1cccnc1)C2` | -25.1 | - | -17.94 |
| `O=C1CSc2ccc(C(=O)N3CCCC(n4cccn4)C3)cc2N1` (centres undefined) | 1.634 | 11.96 | -0.309 |
| `CN1CC(c2ccccc2)CC12CCN(C(=O)c1ccc(F)cc1)CC2` (centres undefined) | -16.06 | 11.11 | 23.35 |
| `CC(=O)N1CCC2(CC1)c1ncc(-c3ccccc3)n1CCN2C(C)=O` | -26.89 | -7.268 | -72.12 |
| `Cc1cccc(OCCN2CCN(Cc3noc(C)n3)CC2)c1` | 1.468 | 14.29 | 1.284 |
| `COc1nn(C)c2c1CCCN(C(=O)c1cc[nH]n1)C2` | -9.828 | 2.357 | 12.29 |
| `O=C(O)CCc1cc2n(n1)CCCN(C(=O)c1ccc3cc[nH]c3c1)C2` | -0.3396 | 18.48 | - |
| `CC(C)(O)CN1CCN(C(=O)c2ccc(Cl)c3cccnc23)CC1` | -12.38 | 16.71 | - |
| `CN(C)C(=O)CCCNc1ncc2c(n1)CCN2c1ccccc1` | 14.48 | 10.68 | - |
| `C[C@@H]1CN(C(=O)Cc2ccsc2)C[C@]12CCN(CCN(C)C)C2=O` | -7.488 | 9.936 | 25.07 |
| `Cn1cc(I)c(C(=O)NCCCn2cc(Br)cn2)n1` | -12.67 | 4.715 | -1.228 |
| `CN(C)c1cncc(C2CCN(CC(N)=O)CC2)n1` | -4.696 | 10.94 | -4.481 |
| `C[C@@H]1CN(C(=O)c2cccs2)C[C@]12CCN(CCN(C)C)C2=O.O=C(O)C(F)(F)F` | -23.8 | - | 3.164 |
| `O=C(N[C@@H]1CN(c2ncccn2)C[C@@H]2CCCO[C@@H]21)c1cccnc1` | - | 5.185 | - |
| `CC(C)=CCN1CCN(CCCc2ccccc2)[C@H]2CS(=O)(=O)C[C@H]21` | - | 13.87 | - |
| `O=C(O)C(F)(F)F.[H][C@@]12CCN(C(=O)C(C)C)CC[C@]1(C(=O)N1CCOCC1)CCN2CC` | -36.31 | - | -8.963 |
| `O=C(c1ccoc1)N1CCCN(C(=O)c2ccc(C3CCCN3)s2)CC1` (centres undefined) | 5.771 | 5.587 | 9.834 |
| `Cc1cc(C)n(CC2CCCCN2CCc2ccncc2)n1` (centres undefined) | -0.1706 | 11.58 | - |
| `O=C(Cc1ccccc1)N1CCC2(CC1)COCCN2CC1CC1.O=C(O)C(F)(F)F` | -16.04 | - | -29.1 |
| `CNc1nc(C(=O)N2C[C@H]3CC[C@@H]2CN(S(C)(=O)=O)C3)cs1` | - | 6.704 | - |
| `c1ccc(OCCSC2=NCCN2)cc1` | -12.32 | 4.8 | - |
| `CC(=O)Nc1ccc(CC(=O)N2CC(S(=O)(=O)C3CCCCC3)C2)cc1` | 3.754 | 10.79 | 21.89 |
| `Cc1cccc(OCCNC(=O)CN2CCN(C)CC2C)c1` (centres undefined) | 15.59 | 0.9524 | - |
| `CN(C)c1ncnc2c1CCN(CC1CCOCC1)CC2` | - | 20.33 | - |
| `CCn1nc(C)cc1C(=O)N1CC[C@H](OC)[C@H]2CN(CC3CC3)C[C@H]21` | - | -1.718 | - |
| `O=S(=O)(CCC1CCCO1)NCc1ncc(-c2ccccc2)o1` (centres undefined) | -17.66 | 13.54 | - |
| `COc1cccc(CN2CCC3(CCN(c4ncc(F)cn4)CC3)C2)c1` | - | 13.49 | - |
| `O=C(c1ccco1)N1C(CO)[C@]2(O)CC[C@H]1CC2` (some centres undefined) | - | 5.753 | - |
| `O=C(O)c1cc2c(nc1-c1ccsc1)CCN(C1CCOC1)CC2` (centres undefined) | - | 9.783 | - |
| `O=C(NCc1ccco1)[C@H]1C[C@@H]2CCN(c3ncccn3)C[C@H]2O1` | - | 12.88 | - |
| `CN(Cc1ccsc1)C(=O)Nc1cccnc1N1CCCC1` | -19.65 | 7.087 | 4.85 |
| `Cc1nc(C)n(CC2CCCCN2CC(=O)NCc2ccccn2)n1` (centres undefined) | 10.94 | 6.213 | 18.51 |
| `COCCN1CCc2c(CNC(=O)c3nccn3C)cncc2C1.Cl.Cl.Cl` | 7.945 | - | -22.52 |
| `CCN1CCC2(CC1)C(=O)N(c1ccc(C)nc1)CCN2CC(C)C.O=C(O)C(F)(F)F` | -22.32 | - | 23.42 |
| `Cc1ccc(S(=O)(=O)N2CCN(CCC(N)=O)CC2)s1` | 10.87 | 22.06 | -5.417 |
| `Cc1ccn(CC(=O)N2CC[C@@H](c3ccc4ccccc4c3)[C@H](O)C2)n1` | 0.8682 | 13.01 | 15.29 |

Repeated from the top, 4 entries:

* O=C(O)[C@@H]1CN(C(=O)CN2CCCCCC2)C[C@H]1c1ccccc1 : Mtb heat-shock: -3.133%; LdMetRS: 26.25%
* CN(CCOCC1CC1)C(=O)Cn1cccc(C(F)(F)F)c1=O : Mtb heat-shock: 1.369%; LdMetRS: 8.014%; Mtb growth Cornell: -10.9%
* Cn1[nH]c(C2CC2)c(-c2ccc3c(c2)OCO3)c1=N : Mtb heat-shock: -19.25%; LdMetRS: 11.39%; Mtb growth Cornell: 17.45%
* CN(C)c1ccccc1CN1CCCCC1CNS(C)(=O)=O (centres undefined) : Mtb heat-shock: -19.22%; LdMetRS: 6.643%; Mtb growth Cornell: 3.612%

Source: ChEMBL document CHEMBL3988442, “University of Dundee, Small-Polar-MMV Screening Library” (2021).